In patent US20160009819A1:
No constants are given. Whether binding was seen depends on the method and setting. Some results given as binding are weak or reduced against the parent protein; the word gives no strength. Tags and fused reporters may be left off the sequences shown.

Key:
[1] = biological target: T1, baboon EL (vascular endothelial lipase) with C2 tag (baboon); assay: screening ELISA: hybridoma antibody on anti-mouse IgG-Fc plate, baboon EL heparin extract, anti-C2-tag detection
T1 sequence: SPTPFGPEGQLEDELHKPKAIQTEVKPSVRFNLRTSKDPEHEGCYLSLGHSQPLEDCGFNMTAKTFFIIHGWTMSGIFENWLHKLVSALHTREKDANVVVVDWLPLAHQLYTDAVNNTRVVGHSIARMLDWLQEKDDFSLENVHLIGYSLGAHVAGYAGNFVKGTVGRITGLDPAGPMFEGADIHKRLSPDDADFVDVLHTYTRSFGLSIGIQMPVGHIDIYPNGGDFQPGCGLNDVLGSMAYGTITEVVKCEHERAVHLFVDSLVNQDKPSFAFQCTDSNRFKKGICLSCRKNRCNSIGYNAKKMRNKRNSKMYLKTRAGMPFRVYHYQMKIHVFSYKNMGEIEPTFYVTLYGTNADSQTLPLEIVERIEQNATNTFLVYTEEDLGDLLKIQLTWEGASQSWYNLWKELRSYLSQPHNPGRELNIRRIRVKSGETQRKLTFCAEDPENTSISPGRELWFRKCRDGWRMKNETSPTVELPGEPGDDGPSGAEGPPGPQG

[2] = biological target: T1, baboon EL (vascular endothelial lipase) with C2 tag (baboon); assay: ELISA: antibody captured on anti-mouse IgG-Fc plate, C2-tagged EL heparin extract added, anti-C2-tag detection, A450 (Example 8)
[3] = biological target: T2, human [1-305]-mouse chimeric EL with C2 tag (human; mouse) (UniProt Q9WVG5); assay: as above
T2 sequence: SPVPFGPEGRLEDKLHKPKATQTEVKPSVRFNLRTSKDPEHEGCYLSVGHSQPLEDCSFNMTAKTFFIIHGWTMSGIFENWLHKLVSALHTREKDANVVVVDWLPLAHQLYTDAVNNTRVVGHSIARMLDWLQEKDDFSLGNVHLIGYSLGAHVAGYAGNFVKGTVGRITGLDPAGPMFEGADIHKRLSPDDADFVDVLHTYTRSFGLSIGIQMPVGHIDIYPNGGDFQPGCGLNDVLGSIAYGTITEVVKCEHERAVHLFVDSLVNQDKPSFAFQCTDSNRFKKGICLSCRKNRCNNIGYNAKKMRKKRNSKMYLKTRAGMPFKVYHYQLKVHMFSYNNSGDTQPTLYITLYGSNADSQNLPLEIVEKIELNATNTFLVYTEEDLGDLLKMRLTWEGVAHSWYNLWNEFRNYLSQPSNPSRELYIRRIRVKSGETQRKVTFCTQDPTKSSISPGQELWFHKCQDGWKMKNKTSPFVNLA

[4] = biological target: T1, baboon EL (vascular endothelial lipase) with C2 tag (baboon); assay: sandwich ELISA: antibody captured on anti-mouse IgG-Fc plate, EL heparin extract added, detected by anti-C2-tag antibody
[5] = biological target: T2, human [1-305]-mouse chimeric EL with C2 tag (human; mouse); assay: as above
[6] = biological target: T1, baboon EL (vascular endothelial lipase) with C2 tag (baboon); assay: ELISA as in FIG. 3A-3K (A450 against antibody concentration; Example 8 format, not described for 16F6 in the text)
[7] = biological target: T2, human [1-305]-mouse chimeric EL with C2 tag (human; mouse); assay: as above
[8] = biological target: T3, human [202-500]-mouse chimeric EL with C2 tag (mouse; human) (UniProt Q9WVG5); assay: ELISA: antibody captured on anti-mouse IgG-Fc plate, C2-tagged EL heparin extract added, anti-C2-tag detection, A450 (Example 8)
T3 sequence: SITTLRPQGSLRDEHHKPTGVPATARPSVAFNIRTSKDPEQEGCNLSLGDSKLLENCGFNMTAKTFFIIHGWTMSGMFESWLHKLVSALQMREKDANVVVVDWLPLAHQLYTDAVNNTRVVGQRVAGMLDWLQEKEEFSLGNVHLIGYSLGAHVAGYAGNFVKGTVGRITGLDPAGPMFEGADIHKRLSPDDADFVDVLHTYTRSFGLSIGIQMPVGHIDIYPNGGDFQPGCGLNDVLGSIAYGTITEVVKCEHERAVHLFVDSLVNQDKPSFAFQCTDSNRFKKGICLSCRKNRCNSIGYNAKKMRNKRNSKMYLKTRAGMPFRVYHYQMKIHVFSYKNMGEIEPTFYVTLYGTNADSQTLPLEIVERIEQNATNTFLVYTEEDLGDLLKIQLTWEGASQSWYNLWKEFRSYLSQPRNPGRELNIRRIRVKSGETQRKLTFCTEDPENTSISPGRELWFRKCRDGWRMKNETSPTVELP

[9] = biological target: T3, human [202-500]-mouse chimeric EL with C2 tag (mouse; human); assay: sandwich ELISA: antibody captured on anti-mouse IgG-Fc plate, EL heparin extract added, detected by anti-C2-tag antibody

Measured: binding

B1: 16B3 antibody (antibody, V domains shown)
VH: DVKLVESGGGLVQPGGSLKLSCTASGFTFSGYTMSWVRQTPEKRLELVAEISFARDRAFYPDTVKGRFTISRDNAKNTLYLQMSSLKSEDTAMYYCTRLGGRNHDYWYFDVWGTGTTVTVSS
VL: DIVLTQSPTSLAVSPGQRATISCRASESVEYYGTSLMQWYQQKPGQRPQLLIYAASNVESGVPARFSGSGSGTDFSLNIHPVEEDDIAVYFCQQSWKVPFTFGSGTKLEIK
binds: [1] | [2] | [3] | [4] | [5]

B2: 16F6 antibody (antibody, V domains shown)
VH: QVQLQQSGAELMKPGASVKISCKATGYTFSTYWIAWVKQRPGHGLEWIGEILPGSAKTKYNKKFKGKATFTADTSSNTAYMQLSSLTSEDSAVYYCAVYDYGADYWGQGTSVTVSS
VL: DIVMTQSHKFMSTSVGDRVSITCKASQDVYTAVAWYQQKPGQSPKLLIYSASYRFTGVPDRFTGSGAGTEFTFTINSVQAEDLAVYYCQQHYSIPRTFGGGTKLEIK
binds: [6] | [7]

B3: 53A11 antibody (antibody, V domains shown)
VH: EVQLQQSGPELLKPGASVKISCKASGYTFTDYTMHWVKQSHGKSLEWIGGINPYYGGTTYNEKFKDKATLTVDKSSSTAYMELRSLTSEDSAVYYCAKGDYYGGSYNYWGQGTTLTVSS
VL: DIVLTQSLATLSVTPGDSVSLSCRASQDISNSLHWYQQKSHESPRLLIKYASQSISGIPSRFSGSGSGTDFTLSINSVETEDFGMYFCQQSNSWPYTFGGGTKLEIK
binds: [1] | [2] | [4]

B4: 19E7 antibody (antibody, V domains shown)
VH: QVQLQQPGSVLVRPGASVKLSCKASGYTFTTYWMHWVKQRPGQGLEWIGEIHPYSGNNNNNEKFKGKATLTVDTSSSTAYVDLSRLTSEDSAVYYCARYDSNYVFAYWGQGTLVTVSA
VL: QIVLTQSPAIMSASPGEGVTITCSASSSVSYMHWFQQKPGTSPKLWIYSTSNLASGVPARFSGSGSGTSYSLTISRMEAEDAATYYCQQRDSYLTFGSGTKLEVK
binds: [1] | [2] | [8] | [4] | [9]

B5: 14A1 antibody (antibody, V domains shown)
VH: QIQLVQSGPELKKPGETVKISCKASGYTFTNYGMNWVKQAPGKGLKWMGWINTYSGVPTYADDFKGRFAFSLETSASTAYLQINNFKNEDTATYFCARFSYYGRHYFDYWGQGTALTASS
VL: DIVLTQSPASLAVSLGQRATISCKASQSVDYDGDSYMNWYQQKPGQPPKLLIYAASNLKSGIPARFSGSGSGTDFTLNIHPVEEEDAATYYCQQTTDDPPWTFGGGTKLEIK
binds: [1] | [2] | [4]

B6: 7D4 antibody (antibody, V domains shown)
VH: QIQLVQSGPELKKPGETVKISCKASGYTFTNYGMNWVKQAPGKDLKWMGWINTYSGVPTYADDFKGRFAFSLETSASTAYLQINNLKNEDTATYFCARFSYYGRHYFDYWGQGTTLTVSS
VL: DIVLTQSPASLAVSLGQRATISCKASQSVDYDGDSYMNWYQQKPGQPPQLLIYAASNLGSGIPARFSGSGSGTDFTLNIHPVEEEDAATYYCHQSTDDPPWTFGGGTKLEIK
binds: [1] | [2] | [4]

B7: 13B3 antibody (antibody, V domains shown)
VH: EVQLQQSGPELLKPGASVKISCKASGYTFTEYTMHWVKQSHGKSLEWIGSINPYYGGTSYNEKFKDKATLTVDKSSNTAYMEFRSLTSEDCAVYYCARYGNYVGYFDYWGQGTTLTVSS
VL: ENVLTQSPAIMSASLGEKVTMSCRASSSVHYMYWYQQKSDASPKLWIYYTSNLAPGVPDRFSGSGSGNSYSLTISSMEGEDAATYYCQQFTSSPYTFGGGTKLEIK
binds: [1] | [2] | [4]

B8: 23H8 antibody (antibody, V domains shown)
VH: EVQLQQSGPELLKPGASVKISCKASGYTFTDNTIHWVKQSHGKSLEWIGHINPYYGGTNNNEKFKDKATLTVDKSSSTAYMELRSLTSEDSAIYYCARKGIYYSSPFDYWGQGTTLTVSS
VL: DIQMTQTTSSLSASLGDRVTISCRASQDINNYLNWYQQKPDGTVKLLISYTSKLHSGVPSRFSGSGSGTDYSLTISNLEREDFATYFCQQGNTLPFTFGSGTNLEIK
binds: [1] | [2] | [4]

B9: 14E1 antibody (antibody, V domains shown)
VH: QVQLQQSGAELVKPGASVRLSCKASGYTFTKYTIHWVKQRSGQGLEWIGWFYPGSDSIKYNEKFKDKATLTADKSSRTVYMELSRLTSEDSAVYFCARHEEYTNSLAYWGQGTLVTVSA
VL: DIQMTQTTSSLSASLGDRVTISCRASQDISNYLNWYQQQPDGTVKLLIYYTSRLHSGVPSRFSGSGSGTDYSLTISNLEQEDIATYFCQQGYTLPWTFGGGTNLEIK
binds: [1] | [2] | [3] | [4] | [5]

B10: 55A1 antibody (antibody, V domains shown)
VH: QIHLVQSGPELKKPGETVKISCKASGYTFTNYGMNWVKQAPGKGLKWMGWINTYSGVPTYAGDFKGRFAFSLETSASTAYLQINNLKNEDTATYFCARRGYYGRRYFDVWGTGTTVTVSS
VL: DIVLTQSPASLAVSLGQRATISCKASQSVDYDVDSYMHWYQQKPGQPPKLLIYAASNLASGIPARFSGGGSGTDFTLNIHPVEEEDVATYYCQQTIEDPPTFGGGTKLEIK
binds: [1] | [2] | [4]
